The values below are quoted from earlier work in PMC8071183 (International Journal of Molecular Sciences, 2021).

For the data set, the system named is GIRK channels. The settings on record: read-out: IC50 of direct GIRK channel block; cited from earlier work.

Broadly, the IC50 is the concentration that gives 50% inhibition. As for `O=C(CCCN1CCC(O)(c2ccc(Cl)cc2)CC1)c1ccc(F)cc1` [haloperidol], the concentration for half-maximal inhibition (IC50) is 41 µM.
